Test results published in publication PMC5847153.
No constants are given. Whether binding was seen depends on the method and setting. Binding seen in cells or lysates may run through a third protein. Some binding calls cover weakened binding; strength is not graded here. Where a sequence is shown, tags or fusion partners need not be part of it.

Target: 2xFLAGbio-Sox2, P48432
Assay: co-IP; HEK cells co-transfected, total cell extracts in carin buffer (20 mM Tris pH8, 137 mM NaCl, 10 mM EDTA, 1% NP40, 10% glycerol), antibodies against myc or FLAG, protein G beads, 4 °C, western blot
Conditions: remark: other sources report otherwise

B1: myc-tagged TCF3, Q9Z1J1 1-584 (protein)
chain: MPQLGGGRGGAGGGGGGSGAGATSGGDDLGANDELIPFQDEGGEEQEPSSDTASAQRDLDEVKSSLVNESENQSSSSDSEAERRPQPARDAFQKPRDYFAEVRRPQDGAFFKGGAYPGYPFLMIPDLSSPYLSNGPLSPGGARTYLQMKWPLLDVPSSATVKDTRSPSPAHLSNKVPVVQHPHHMHPLTPLITYSNDHFSPASPPTHLSPEIDPKTGIPRPPHPSELSPYYPLSPGAVGQIPHPLGWLVPQQGQPMYSLPPGGFRHPYPALAMNASMSSLVSSRFPHMVAPAHPGLPTSGIPHPAIVSPIVKQEPAAPSLSPAVSAKSPVTVKKEEEKKPHVKKPLNAFMLYMKEMRAKVVAECTLKESAAINQILGRKWHNLSREEQAKYYELARKERQLHAQLYPTWSARDNYGKKKKRKREKQLSQTQSQQQIQEAEGALASKSKKPCIQYLPPEKPCDSPASSHGSALDSPATPSAALASPAAPAATHSEQAQPLSLTTKPEARAQLALHSAAFLSAKAAASNSSQMGSQPPLLSRPLPLGSMPAALLTSPPTFPATLHAHQALPVLQAQPLSLVTKSAH
  binding: binds
